Measurements from publication PMC12647202.

T1: homolog of methionine γ-lyase (MGL) encoded by synpcc7942_2562, triple-FLAG-tagged (Synechococcus elongatus sp. PCC 7942) (UniProt Q54763)
T1 sequence: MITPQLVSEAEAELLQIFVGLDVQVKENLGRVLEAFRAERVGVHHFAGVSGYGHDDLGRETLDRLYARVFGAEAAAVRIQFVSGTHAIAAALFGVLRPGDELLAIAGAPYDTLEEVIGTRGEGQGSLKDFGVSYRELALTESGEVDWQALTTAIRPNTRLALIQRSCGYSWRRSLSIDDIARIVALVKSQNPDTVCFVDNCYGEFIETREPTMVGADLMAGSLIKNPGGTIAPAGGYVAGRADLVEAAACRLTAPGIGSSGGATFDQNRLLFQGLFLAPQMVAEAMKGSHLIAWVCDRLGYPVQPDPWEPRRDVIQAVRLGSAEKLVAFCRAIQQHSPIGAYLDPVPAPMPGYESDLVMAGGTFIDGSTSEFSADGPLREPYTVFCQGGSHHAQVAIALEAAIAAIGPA

B1: ribose-5-phosphate isomerase A (enzyme, UniProt Q31QQ3 1-241)
chain: MLLNTRKPVMDPVTHMKHEVAKAAASRVQSGMVVGLGSGSTAALMIQYLGDRVRNGELTNIQAVPTSFQSSVLANEYGIPLTTLNEVDRIDIAIDGADEVDPQRNLIKGGGACHTREKLVDARAEQFIVVVDSSKLVEALGTTFLLPVEVLPEAYIQVGKALEKLGGKPELRMAVKKAGPVVTDQGNLVLDVKFDRIDQPAELEKAINNIPGVLENGLFVGLTDLVLVGEVDGDRVSVREF
B2: tRNA ligase AspS (enzyme, UniProt Q31NM6 1-599)
chain: MRTHYCGELRAEQVGTSVTLYGWVDRRRDHGGVIFVDLRDRTGTVQIVSDPERTPESYHQAEGLRNEYVVKITGRVSGRPAESLNPKLPTGEVEIYADRIEILNAVRRQLPFQVSSADEETVREDLRLRYRYLDLRRDRMNRNLQLRHQVVKAIRRFLEDEEQFIEIETPVLTKSTPEGARDYLVPSRVNPGEWFALPQSPQLFKQLLMVSGFDRYYQIARCFRDEDLRADRQPEFTQLDMEMSFLSQEEIIDLNERLIAHIFKTVKGIELPRPFPRLTYAEAMDRYGSDRPDTRFGLELVDVSDVVADMGFKVFSGAVKSGGKVKILPIPDGNDRISNVRIKPGGDIFKEATEAGAAGLAYIRVRENGEIDTIGAIKDNLSDEQKAEILRRTQAQPGTLLLFGAGSTDIVNKSLDRVRQFLGKELGLIDPEALNLLWVVDFPMVEWNADEKRYEALHHPFTAPNPQDLEDLTTARAQAYDIVLNGLEIGGGSLRIYQRDIQERVFETIGLSHEEAQAKFGFLLEAFDFGTPPHGGIAYGLDRLVMLLTGEESIRDAIAFPKTQQARCLLTEAPADVSDRQLKELYVASTWQPPIKERD
B3: tRNA ligase GlyS (enzyme, UniProt Q31SB9 1-728)
chain: MPAFLLEVGTEELPASFVAAAIAQWQNWLPTRLAEAQLTTTQISVYGTPRRLAVLIEGLPDRQPDREEEVKGPPASAAFKDGEPTPAAIGFARKQGVEVSDFTVRETDKGAFVFVQKREVGQPLADVLQSLVPSWIQDLEGKRFMRWGDGDLRFSRPIRWLVALIDDQVLPLELTSGGSTVQSDRLSRGHRVLHPEPVAIAQASDYLATLEAASVLVDPAQRQAKIEAQTAAIASKVGGQAELPEDLLAEVVHLTEWPTAVLGQFEERFLSLPAEVSTMVMTSHQRYFPIYQATAQRDPAAIDARSELLPCFVTISNGDPAASETIAAGNARVIRARLADGEYFYRTDSKQPLESFLSQLEAVTFQEQLGSVRSKVDRIGAIAHRLCDQLSIHSSDRLLVSRAAQLCKADLVSQMVYEFPELQGVMGEKYARVSQEPDAVATAIREHYLPKGAGDQLPQTLTGRMVALADRLDTLVCIFGLGLLPSGSSDPFALRRAANGVLNILWDGQLRLDLTALIQGIAADFHHAFPKLAGNAETLIQQLTDFFGQRLRTLLQDEQGIDYDLVNAVLGDGDANYLLRAIADPLDALNRAKLLQTLRQDGRLVALYETVNRATRLASKGDLDTATLDPTGLVNADLFQQPSEAAFLSALTTLQPLATAAQASQAYEPLVEGLLTAAPAVQSFFDGDTSVLVMDPDPAIQQNRLNLLGLLRNQARVLADFGAIVKGE
B4: translation initiation factor IF-2 (protein, UniProt Q31LL9 1-1030)
chain: MNNGKVRIYELSKELNLDNKDVLAVCDRLEIPYKSYSSTLSEEQVVQVRQVLAGAAPSEPVAAASAADSPKAERKQEIVSVRRPTPQAAGGAKPEIVGRPTASEKPQAERPNIVAPPRRPAAANEPAKAPIKPARPEKSAEKPEIVTPRPPAPAASAEPAKSPSRPAPAATPRPVAETKKPKPAAAELLRKPEIVRRSEAKPERTSEAPTPRPKIERRPEQTGPARPQLGQPVAGNGVSKPAKPVKPIELVAPPSRPKVAASASGVPAAASRVLPNKPQKPTAPGGPELKQRPKPAAPASGEDLAATVDVFQPVPPLELRRPTAPARPARPRKGWEEEEDERAAANRKAGNKAAAKAKRRQLIQDDDDDDLLTAEQELAAADALNLAMSLARPSKPKVPQAKPAVAVMPTKGRKPRRESARERQHRRRMEREQKPVRPELISLRSSMTVQELAQLMVVPETDIIKSLFFKGIAATVTQSLDVATIEQVAEEFGILVEQETEESGARKTTQMVEDADAESLQTRPPVVTVMGHVDHGKTTLLDAIRKTRVAAGEAGGITQHIGAYHVDVEHNGDQHQIVFLDTPGHEAFTAMRARGARVTDIAILVVAADDGVRPQTLEAISHAKAAEVPLIVAINKCDKEEAQPDRVKQELTEYGLVPEEWGGETVMVPVSAIKGENIDQLLEMILLVTEVEELVANPDRAARGTVIEAHLDKARGPVATLLVQNGTLRVGDVLVAGSVLGKVRAMVDDRGDRVEAATPSFAVEVLGLGDVPAAGDEFEVYSDEKSARAVATSRADEQRQSRLQQAMASRRVSLGTVSAQAQEGELKELNLILKADVQGSVEAILGSLEQLPQKQVQVRVLLAAPGEITETDVDLAAASGAVIVGFNTTLASGAKRAADEAGVDVRDYDIIYKLLEDIQAAMEGLLEPELVEEPLGQVEVRAVFSIGRGAVAGCYVQSGKAIRNCNIRVRRGSNLVYTGTLDSLKRMKEDVKEVNSGYECGIGLDSFSAWQEGDIIETYRMVTKRRTLEV
B5: 1,4-dihydroxy-2-naphthoyl-CoA synthase (MenB) (enzyme, UniProt Q31QP0 1-279)
chain: MAQVQWQSVREYEDIRYEKCAEGIAKITINRPHKRNAFRPKTVVELYDAFCDAREDIAIGVILLTGAGPHTDGRYAFCAGGDQSVRGAGGYIDEEGLPRLNVLDLQRLIRTIPKVVIALVAGYAIGGGHVLHILCDLTIAADNAVFGQTGPKVGSFDGGFGASYLARLVGQKKAREIWFLCRQYGAKEALQMGLVNTVVPVEELEAEGIRWALEILEKSPIAIRCLKAAFNAELDGMAGIQELAGHATHLYYLTEEGSEGKQAFLEKRSPDFRQYPWLP
B6: tRNA ligase MetG (enzyme, UniProt Q31P47 1-525)
chain: MPSTFALTTPLYYVNDVPHIGSAYTTIAADAIARFHRLQGDRVLMITGSDEHGQKIQRTAEKNGKPPQEHCNAIVARFQDLWQLLNIRYDRFSRTTDPRHQAIVEVFYRRVEAQGDIYVGRQQGWYCVACEEFKEERDLLEDKRCPIHTNQAVEWRDEENYFFRLSRYQEALEAHYAANPDFIQPESRRNEVLSFVERGLQDFSISRVNLEWGFAVPDNPKHTLYVWFDALLGYVTALLDPDAEPTLENALSQWWPINLHLIGKDILRFHAVYWPAMLLSAGLPLPDRVFGHGFLTKDGLKMGKSLGNTLDPFDLVDRFGSDAVRYYFLKEIEFGRDGDYQETRFVNVVNADLANDLGNLLNRTLSMAKRYCQLQIPLGSTAIAADNPLRQQGEALTDSVKSAYDRLAFSEACGQILALVQAGNRYLDQEAPWTRFKQGEQAKVEEILYTVLESVRLAAYWLSPLVPGISQEIYRQLGLVADFNDPAIAQQLDPESHGHWGFLPAAQQFLDPSPVFRSLELAPAD
B7: elongation factor Ts (protein, UniProt Q31K58 1-221)
chain: MAEISAKLVKELREKTGAGMMDCKKALNENDGDLQKAIEWLRQKGIASAEKKSGRTAAEGLVGSYIHTGGRVGVLVEVNCETDFVARGDKFQELVRSIAMQIAACPNVEFVKVEDIPAEIAEREKAIEMGRDDLANKPENIREKIVVGRIEKRLKELTLLDQPYIRDPNISVAELVKQSIAELGENIQVRRFTRFVLGEGIEKAESDFAAEVAAQAAAAQS

molecular target: T1, homolog of methionine γ-lyase (MGL) encoded by synpcc7942_2562, triple-FLAG-tagged (Synechococcus elongatus sp. PCC 7942); experiment: affinity purification with mass spectrometry; lysate of S. elongatus strain 2562::Tn5/2562::FLAG on anti-FLAG magnetic beads, 2 h at room temperature and overnight at 4 °C; eluted with 100 µM triple-FLAG peptide; non-tagged strain 2562::Tn5/2562 as negative control; three independent biological repetitions; hits at fold ≥ 2, p value ≤ 0.05

Row | binding | Binder
1 | binds | B1
2 | binds | B2
3 | binds | B3
4 | binds | B4
5 | binds | B5
6 | binds | B6
7 | binds | B7

Results are given in words; binding and its absence hold for the method and conditions named. In cells and extracts the contact can be indirect. Here binding means that the protein was enriched with, or labelled near, the bait; the list need not be complete. Sequences can lack the tags named with a protein.
